# Not every detail of the peptide structures is certain; ends, links or a residue may be inferred. No end group written: not given here.
# Assays:
# [1] = Glucose in animals supplemented with 20% sucrose, 30 days-treatment; assay type: in vivo, Winstar rats; settings: Peptide 19 100 μg/Kg, 15th and 30th days of treatment
# Procedure: (§1) Winstar rats fed with standard regimen supplemented with 20% sucrose were used in the drinking water during 60 days before and during the 30 days-treatment with SALINE (negative control), Rimonabant (positive control), Peptide 19 (Pep 19) in the concentration of 50 μg/Kg and Peptide 19 (Pep 19) in the concentration of 100 μg/Kg.
# [2] = Adiposity ratio in animals supplemented with 20% sucrose; assay type: in vivo, Wistar rats; settings: 30 days-treatment
# CB1 receptor = assay: ELISA with striate membranes and anti-CB1 antibody, receptor activating percentage vs non-treated membrane; assay type: biochemical; settings: striate membranes 5 μg/pool, 1 μM of each drug, 2 hours, ambient temperature; variants compared with SeqID:1
# Procedure: The receptor activating percentage was calculated regarding the control, non-treated membrane (100%). […] Significant differences are indicated and p<0.05.
# [3] = Cholesterol in animals supplemented with 20% sucrose, 30 days-treatment; assay type: in vivo, Wistar rats; settings: after 30 days-treatment
# Procedure: as §1, with “Wistar” for “Winstar”
# [4] = Activity on oral administration (statement, no separate method); assay type: in vivo, mammalian
# [5] = Amount of gonadal adipose tissue in animals supplemented with 20% sucrose; assay type: in vivo, Wistar rats; settings: 100 μg/Kg, after 30th day of treatment, vs further groups
# [6] = Insulinemia in animals supplemented with 20% sucrose, 30 days-treatment; assay type: in vivo, Wistar rats; settings: 100 μg/Kg, after 30 days-treatment
# [7] = Test in retroperitoneal adipose tissue, 3 days oral treatment; assay type: in vivo, Thin wistar rats; settings: 100 ug/Kg, 3 days orally, vs Rimonabant and/or saline groups
# Procedure: (§2) Furthermore, in a treatment acute model (3 days of treatment orally in non-obese wistar rats) it was verified the brown adipose tissue activation, the retroperitoneal, inguinal and brown adipose tissues reduction, as well the adiposity ratio (FIGS. 4 to 9), effects not observed with Rimonabant.
# The measure of the adipose tissue was performed after finishing the treatment. The results are expressed by the retroperitoneal adipose tissue weight measured for treatment purpose (scale of g/100 g). Rats administered with vehicle (saline) were subject to the same protocol (control).
# [8] = Weight in animals supplemented with 20% sucrose, 30 days-treatment; assay type: in vivo, Rats wistar; settings: 100 μg/Kg, 3th to 5th week of treatment
# [9] = Serum leptin concentration determination, 3 days oral treatment; assay type: in vivo, Thin wistar rats; settings: 100 ug/Kg, 3 days orally, vs saline group
# [10] = Test in inguinal adipose tissue, 3 days oral treatment; assay type: in vivo, Thin wistar rats; settings: 100 ug/Kg, 3 days orally, vs Rimonabant and/or saline groups
# Procedure: as §2
# The measure of the adipose tissue was performed after finishing the treatment. The results are expressed by the inguinal adipose tissue weight measured at the treatment end (scale of g/100 g). Rats administered with vehicle (saline) were subject to the same protocol (control).
# [11] = Pain test: carrageenan-induced hyperalgesia, intraplantar administration; assay type: in vivo, Rats; settings: 20 g by leg, immediately before carrageenan 200 g by leg, 0 h and 3 h
# Procedure: It was performed the comparative analysis of the peptide intraplantar administration over the carrageenan-induced hyperalgesia. Rats were treated with peptide ([…]) immediately before the carrageenan intraplantar administration ([…]) and were evaluated using a pressure apparatus […] (0 h and empty legs) and 3 h after administration of carrageenan (black legs).
# [12] = Test in brown adipose tissue, 3 days oral treatment; assay type: in vivo, Thin wistar rats; settings: for brown adipose tissue mass: 100 ug/Kg, 3 days orally, vs Rimonabant and/or saline groups
# Procedure: as §2
# The measure of the adipose tissue was performed after finishing the treatment. The results are expressed by the brown adipose tissue weight measured at the treatment end (scale of g/100 g). Rats administered with vehicle (saline) were subject to the same protocol (control).
# [13] = Test in mesenteric adipose tissue, 3 days oral treatment; assay type: in vivo, Thin wistar rats; settings: 100 ug/Kg, 3 days orally, vs Rimonabant and/or saline groups
# [14] = Triglycerides in animals supplemented with 20% sucrose, 30 days-treatment; assay type: in vivo, Wistar rats; settings: 100 μg/Kg, after 30 days-treatment
# [15] = Test in gonadal adipose tissue, 3 days oral treatment; assay type: in vivo, Thin wistar rats; settings: 100 ug/Kg, 3 days orally, vs Rimonabant and/or saline groups
# [16] = Adiposity ratio determination, 3 days oral treatment; assay type: in vivo, Thin wistar rats; settings: 100 ug/Kg, 3 days orally, vs Rimonabant and/or saline groups
# Procedure: as §2
# Thin wistar rats were treated with a Rimonabant dosage (100 ug/Kg) or peptide 19 (Pep 19 100 ug/Kg) during 3 days orally. The measure of the adiposity ratio was performed after finishing the treatment using the formula (%), (I=Σ fat deposits/body weight×100). The results are expressed by the animal weight measured at the treatment end (scale of g/100 g). Rats administered with vehicle (saline) were subject to the same protocol (control).
# [17] = Blood pressure in animals supplemented with 20% sucrose; assay type: in vivo, Wistar rats; settings: 600 μg/Kg, 30 days-treatment, vs further groups
# [18] = Amount of inguinal adipose tissue in animals supplemented with 20% sucrose; assay type: in vivo, Wistar rats; settings: 100 μg/Kg, after 30th day of treatment, vs further groups
# [19] = Amount of mesenteric adipose tissue in animals supplemented with 20% sucrose; assay type: in vivo, Wistar rats; settings: after 30th day of treatment, vs further groups
sequence,measurement,setting,value
"DIIADDEPLT [Modified peptide 1, Asp-Ile-Ile-Ala-Asp-Asp-Glu-Pro-Leu-Thr]",glycaemia,[1],lower glycaemia
same,adiposity ratio (adipose tissue total mass corrected by body weight),"[2]; 100 μg/Kg, groups 50 and 100 μg/Kg (Example 25)",biggest amounts of adipose tissue
same,adiposity ratio (adipose tissue total mass corrected by body weight),"[2]; 600 μg/Kg, groups 100, 300, 600 μg/Kg (Example 26)",lower amounts of adipose tissue
same,activity regarding the CB1 (receptor activating percentage regarding control),CB1 receptor,inverse agonist
same,cholesterol in % from SALINE animals,[3]; Peptide 19 50 μg/Kg,lower cholesterol percentages
same,cholesterol in % from SALINE animals,[3]; Peptide 19 100 μg/Kg,lower cholesterol percentages
same,activity when administered orally,[4],has activity even when administered orally
same,amount of gonadal adipose tissue corrected by body weight,[5],lower percentages of gonadal adipose tissue
same,insulinemia,[6],lower average of insulinemia
same,retroperitoneal adipose tissue mass,[7]; listed as Pep 19,smaller
same,retroperitoneal adipose tissue mass,[7]; listed as SeqID:1,reduction
same,weight in % from the animals weight treated with SALINE,[8],lower weight percentages
same,serum leptin concentration,[9],smaller
same,inguinal adipose tissue mass,[10]; listed as Pep 19,smaller
same,inguinal adipose tissue mass,[10]; listed as SeqID:1,reduction
same,antihyperalgesic activity,[11],antihyperalgesic activity
same,brown adipose tissue mass,[12]; listed as Pep 19,smaller
same,brown adipose tissue mass,[12]; listed as SeqID:1,reduction
same,brown adipose tissue activation,[12]; 3 days of treatment orally in non-obese wistar rats,activation
same,mesenteric adipose tissue mass,[13],no difference
same,triglycerides in % from SALINE animals,[14],lower percentages of triglycerides
same,gonadal adipose tissue mass,[15],no difference
same,adiposity ratio,[16]; listed as Pep 19,smaller
same,adiposity ratio,[16]; listed as SeqID:1,reduction
same,blood pressure,[17],lower blood pressure
same,amount of inguinal adipose tissue corrected by body weight,[18],biggest amounts of inguinal adipose tissue
same,amount of mesenteric adipose tissue corrected by body weight,[19]; 50 μg/Kg,lower percentages of mesenteric adipose tissue
same,amount of mesenteric adipose tissue corrected by body weight,[19]; 100 μg/Kg,lower percentages of mesenteric adipose tissue
